# Binding screen against folded nucleic acids

Targets (5′ to 3′):
TPP: TPP riboswitch RNA three-way junction, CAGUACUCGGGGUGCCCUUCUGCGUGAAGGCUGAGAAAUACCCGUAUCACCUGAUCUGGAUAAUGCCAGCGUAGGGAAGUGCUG. About 160 hits among about 24,000 compounds.
PreQ1: PreQ1 riboswitch RNA pseudoknot, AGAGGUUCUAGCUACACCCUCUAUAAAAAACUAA. From B. subtilis. About 170 hits among about 24,000 compounds.
SAM-II: SAM-II riboswitch RNA pseudoknot, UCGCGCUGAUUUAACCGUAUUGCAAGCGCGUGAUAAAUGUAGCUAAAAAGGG. About 200 hits among about 21,000 compounds.

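Compounds were printed on reactive glass slides in duplicate spots, a dye-labelled oligonucleotide was laid over them, and the fluorescence left after washing was read. For the PreQ1, TPP and SAM-II riboswitches the laboratory earlier reported (doi:10.1038/s41467-019-09493-3) 1 µM RNA, 2 h, and a rule that included a mean Z-score above 3 (spot signal-to-noise against the whole library), a score well above that on a control array, and duplicate spots agreeing (coefficient of variation under 100). The data file gives only the calls; its cut-offs may differ, and compounds hitting several targets are kept. The calls come from the array alone, and fixing a compound to the slide can hide its binding.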 “1” means called a hit, “0” means screened and not called a hit. This is an unselected part of the compounds tested. A dash means that no call is listed here.

Compound | TPP | PreQ1 | SAM-II
CN(C)S(=O)(=O)N1C[C@@H]2CC[C@H](C1)N(Cc1ccc(OCCO)cc1)C2 | 0 | 0 | 0
Cc1ccc(-c2nn(-c3ccccc3)cc2CO)cc1 | 0 | 0 | 0
O=c1c2c3c(sc2ncn1C1c2ccccc2-c2ccccc21)CNCC3 | 1 | 1 | 0
O=C1OC2(CCNCC2)CN1Cc1cc2c(cc1Cl)OCO2 | 0 | 0 | 0
COc1ccc2nc(-c3ccc(Cl)cc3)cc(C(=O)O)c2c1 | 0 | 0 | 0
CCC(C)[C@H](N)c1nnc(SCc2ccc(Cl)c(Cl)c2)o1 (stereo partly specified) | 0 | 0 | 0
CC(=O)Oc1cc(N(C)C)c(N)c2c1C(=O)c1ccccc1C2=O | 0 | 0 | 0
O=C(Nc1cccc([N+](=O)[O-])c1)c1cccc(C(=O)Nc2cccc([N+](=O)[O-])c2)c1 | 0 | 0 | 0
CN1CCC(N[C@@H]2CC[C@@H]2NS(=O)(=O)c2ccc3c(c2)OCCO3)CC1 | 0 | 0 | 0
OC(Cn1cnc(-c2ccccc2)c1-c1ccccc1)Cn1c2c(c3ccccc31)CCCC2 (stereo unspecified) | 0 | 0 | 0
CCNc1ncccc1-c1nc(-c2ccccc2)no1 | 0 | 0 | -
CCOC(=O)c1ccc2nc(C)cc(Nc3cc(Cl)ccc3OC)c2c1 | 0 | 0 | 0
Cc1cc(C)n(CCNC(=O)c2ccccc2NCC(=O)O)c(=O)n1 | 0 | 0 | 0
Cn1c2ccccc2c2c3c(c4c5ccccc5n(CCC#N)c4c21)CNC3=O | 0 | 0 | 0
COc1ccc(S(=O)(=O)c2cnc3ccc(C)cc3c2N)cc1 | 0 | 0 | 0
Cc1ccc(OCC(O)Cn2nc(C)cc2C)cc1 (stereo unspecified) | 0 | 0 | 0
CN1CCN(c2cc(NCCCn3nnc4ccccc43)nc(N)n2)CC1 | 0 | 0 | 0
CC1(C)CC(=O)C2=C(C1)OC(N)=C(C#N)C2c1ccccc1OC(=O)N1CCOCC1 (stereo unspecified) | 0 | 0 | 0
COc1ccccc1OC1CN(c2cc(N)nc(N3CCCC3)n2)C1 | 0 | 0 | 0
Cc1ccc(N2C(N)=C(C#N)C(c3ccsc3)C3=C2CCCC3=O)cc1 (stereo unspecified) | 0 | 0 | 0
Cc1cc(Nc2ccccc2C(=O)O)n2ncnc2n1 | 0 | 0 | 0
COc1ccc(NC2CCCN(C(=O)CCn3c(C)cccc3=O)C2)cc1 (stereo unspecified) | 0 | 0 | 0
COc1ccc(NC(=O)c2c(N)sc3c2CCCC3)cc1 | 0 | 0 | 0
Cc1c(O)cnc2nn(-c3ccccc3)c(=N)n12 | 0 | 0 | 0
Nc1cc(OC(=O)c2ccc(F)cc2)nn1S(=O)(=O)c1ccccc1 | 0 | 0 | 0
COc1ccccc1Nc1nc(C)nc(N)c1S(=O)(=O)c1ccccc1 | 0 | 0 | 0
CCOC(=O)CSc1nc(N)nc(C)c1Cl | 0 | 0 | 0
CC(C)Oc1ccccc1-c1nc(CO)cs1 | 0 | 0 | 0
Cc1ccccc1OCCCCn1c(CCCN)nc2ccccc21 | 0 | 0 | 0
Nc1c(Cl)ccc2nsnc12 | 0 | 0 | 0
O=C(Nc1c(C(c2ccc(Cl)cc2)N2CCN(CCO)CC2)oc2ccccc12)c1ccccc1 (stereo unspecified) | 0 | 0 | -
N#CC1=C(N)OC2=C(C1c1ccccc1)S(=O)(=O)N(Cc1ccc(F)cc1)c1ccccc12 (stereo unspecified) | 0 | 0 | -
N=c1[nH]c(=S)ss1 | 0 | 0 | 0
Cc1ccc(/N=N/c2c(O)c3ccccc3[nH]c2=O)c(S(=O)(=O)N(C)C)c1 | 0 | 0 | 0
NCC1(c2ccc(Cl)cc2)CCCC1 | 0 | 0 | 0
CCOC(=O)c1cc(CNC2(CN3CCOCC3)CCCC2)on1 | 0 | 0 | 0
Cc1cccc(NC(=O)Cn2nnc(C(=O)NCc3ccccc3)c2N)c1C | 0 | 0 | 0
CCCCNc1oc(-c2ccc(S(=O)(=O)N3CCCC3)cc2)nc1C#N | 0 | 0 | -
N#CC1=C(N)OC2=C(C1c1ccc(F)cc1)S(=O)(=O)N(Cc1ccccc1F)c1ccccc12 (stereo unspecified) | 0 | 0 | -
COc1ccc(C(=O)c2c(N)c(C(=O)Nc3ccccc3Cl)c3ccccn23)cc1 | 0 | 0 | -
Cc1ccccc1-c1noc(CNC(C)c2ccc(-n3cncn3)cc2)n1 (stereo unspecified) | 0 | 0 | 0
C=CCOC(=O)C1=C(C)OC(N)=C(C#N)C12C(=O)Nc1ccc(Br)cc12 (stereo unspecified) | 0 | 0 | 0
Cc1ccc(-c2nc3ccccn3c2Nc2ccccc2C)o1 | 0 | 0 | 0
Cc1nc2sc(-c3ccon3)c(N)c2c(C)c1Cl | 0 | 0 | 0
CCOC(=O)c1c(N)sc(C(=O)Nc2ccc(C)c(Cl)c2)c1C | 0 | 0 | 0
Cc1nc2sc(C(=O)c3ccccc3)c(N)c2c(C)c1Cl | 0 | 0 | 0
N[C@H]1c2ccccc2C[C@@H]1NC(=O)CCc1nc(-c2ccccc2)no1 | 0 | 1 | 0
C#CCn1c(C(C)O)nc2ccccc21 (stereo unspecified) | 0 | 0 | 0
Nc1cc(-c2cc(N3CCCCC3)ncn2)c2cc[nH]c2n1 | 0 | 0 | 0
CN(C)N1C(=O)c2c(Cl)c(Cl)c(Cl)c(Cl)c2C1=O | 0 | 0 | 0
CCC(C)(C)c1ccc(OCC(O)CN2CCOCC2)c(C(C)(C)CC)c1 (stereo unspecified) | 0 | 0 | 0
CCOC(=O)c1nc(Nc2ccccc2OCC)c2ccccc2n1 | 0 | 0 | 0
O=C(CC12CC3CC(CC(C3)C1)C2)Nc1cccc2nc(NCCNCCO)ccc12 | 0 | 0 | 0
Cc1nc(-c2ccc(N)cc2)cs1 | 0 | 0 | 0
Nc1cc([N+](=O)[O-])ccc1N1C(=O)CCCC1=O | 0 | 0 | 0
CCOC(=O)C1(C#N)C(=O)CS/C1=N/c1ccccc1Cl (stereo unspecified) | 0 | 0 | 0
COc1ccc(-c2cc(OC)c3cc(N)ccc3n2)cc1 | 0 | 0 | 0
Cc1ccccc1-c1noc(CCCC(=O)N2CCOCC(O)C2)n1 (stereo unspecified) | 0 | 0 | 0
S=C1OC(c2ccccc2)=CC1=CNc1ccccc1 | 0 | 0 | 0
Cn1c(=O)n(C)c2cc(CNc3ccc(Cl)c(C(=O)O)c3)ccc21 | 0 | 0 | -
O=C1CSC(c2cccs2)N1c1nncs1 (stereo unspecified) | 0 | 0 | 0

5 of the entries, repeated:

| Compound | TPP | PreQ1 | SAM-II |
|---|---|---|---|
| `S=C1OC(c2ccccc2)=CC1=CNc1ccccc1` | 0 | 0 | 0 |
| `CC(=O)Oc1cc(N(C)C)c(N)c2c1C(=O)c1ccccc1C2=O` | 0 | 0 | 0 |
| `Cc1cc(Nc2ccccc2C(=O)O)n2ncnc2n1` | 0 | 0 | 0 |
| `OC(Cn1cnc(-c2ccccc2)c1-c1ccccc1)Cn1c2c(c3ccccc31)CCCC2` (stereo unspecified) | 0 | 0 | 0 |
| `Cc1nc2sc(-c3ccon3)c(N)c2c(C)c1Cl` | 0 | 0 | 0 |

Calls as published in the ROBIN set (doi:10.1002/anie.202211358).